Some of these results come from one statement about several compounds together. Some compounds share one range, which may span the group rather than tell each member.
The substances below were run on acetylcholine release, human neuroblastoma cell line differentiated to cholinergic neuronal phenotype (assay: Inhibition of KCl-induced acetylcholine release in a neuroblastoma cell line (Amplex Red)). Details: TFA salt, 10 μM; 50 mM KCl.
Type: cell-based
Procedure: To determine the compound of the invention effects on acetylcholine release, a human neuroblastoma cell line (50.000 cells/well) was used. Cells were differentiated to cholinergic neuronal phenotype for 4 days. Then, cells were pre-incubated for 60 minutes with the compounds (between 0.1 and 100 μM) as acetyl- or palmitoyl-form and conjugated with trifluoroacetate (TFA) or acetate salt. Afterwards, acetylcholine release was induced by membrane depolarization evoked by 15 minutes incubation with 50 mM KCl. Acetylcholine level in supernatants was quantified by using Amplex® Red Acetylcholine Assay Kit (Thermofisher) following manufacturer's instructions. […] Fluorescence (Ex 530 nm/Em 590 nm) was measured in FluorStar equipment. Acetylcholine content was normalized to the total protein content using BCA assay (Pierce) following manufacturer's instructions. Fluorescence measurements were normalized to the maximum signal detected with KCl stimulation in vehicle treated cells. Vesicle exocytosis disruption by the compounds of the invention lead to a decrease of acetylcholine release (Table E).
“Ac-MQVWLRMWIDYRAT-NH2 [SEQ ID NO: 2 acetyl, MQVWLRMWIDYRAT]” was tested, and the “% Ach release inhibition” value was 50-87%. With “Ac-HYWRELQYR-NH2 [SEQ ID NO: 1 acetyl, HYWRELQYR]” the “% Ach release inhibition” value was 50-87%. For “Ac-LRVQMVNMFL-NH2 [SEQ ID NO: 4 acetyl, LRVQMVNMFL]”, the “% Ach release inhibition” value was 50-87%. In the case of “Ac-WEQEFLRR-NH2 [SEQ ID NO: 5 acetyl, WEQEFLRR]”, the “% Ach release inhibition” value is reported as 50-87%.

— patent US12377035B2, “Peptides for inhibiting cholinergic calcitonin gene-related peptide (CGRP) and acetylcholine (ACH) release or inhibiting sensitization-mediated by TRPV1-mediated excitability in sensory neurons and methods of use thereof” (AZIENDE CHIMICHE RIUNITE ANGELINI FRANCESCO—A.C.R.A.F. …, priority 2018, dated 2025)
